The test concerns the target T1, NADPH oxidase 4 (human) (UniProt Q9NPH5).
T1 sequence: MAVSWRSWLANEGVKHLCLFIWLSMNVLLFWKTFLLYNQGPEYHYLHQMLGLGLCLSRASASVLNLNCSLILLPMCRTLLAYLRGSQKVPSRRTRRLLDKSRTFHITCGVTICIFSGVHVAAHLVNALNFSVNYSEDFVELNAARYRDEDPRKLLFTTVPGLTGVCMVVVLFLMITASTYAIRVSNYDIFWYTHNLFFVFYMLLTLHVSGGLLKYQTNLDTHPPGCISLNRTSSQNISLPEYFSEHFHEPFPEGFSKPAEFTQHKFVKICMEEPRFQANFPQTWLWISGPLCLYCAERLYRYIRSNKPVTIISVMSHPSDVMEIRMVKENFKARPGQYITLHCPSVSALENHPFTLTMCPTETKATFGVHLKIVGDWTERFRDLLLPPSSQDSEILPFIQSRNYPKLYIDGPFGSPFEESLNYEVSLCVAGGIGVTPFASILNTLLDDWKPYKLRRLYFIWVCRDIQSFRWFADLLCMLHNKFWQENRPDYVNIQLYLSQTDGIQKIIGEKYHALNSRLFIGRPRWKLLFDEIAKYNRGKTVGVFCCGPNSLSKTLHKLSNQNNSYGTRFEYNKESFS
Nature of the test: co-IP; cells overexpressing human NOX4 (inducible) harvested in RIPA buffer under non denaturing conditions; pre-cleared with GammaBind Plus Sepharose beads; primary antibody 3 hours at 4 °C, beads 30 minutes at 4 °C; western blotting. (In western blotting, separated proteins are transferred to a membrane and probed.)

The chains behind the UniProt entries cited, without tags or fusion partners.
UniProt Q14145: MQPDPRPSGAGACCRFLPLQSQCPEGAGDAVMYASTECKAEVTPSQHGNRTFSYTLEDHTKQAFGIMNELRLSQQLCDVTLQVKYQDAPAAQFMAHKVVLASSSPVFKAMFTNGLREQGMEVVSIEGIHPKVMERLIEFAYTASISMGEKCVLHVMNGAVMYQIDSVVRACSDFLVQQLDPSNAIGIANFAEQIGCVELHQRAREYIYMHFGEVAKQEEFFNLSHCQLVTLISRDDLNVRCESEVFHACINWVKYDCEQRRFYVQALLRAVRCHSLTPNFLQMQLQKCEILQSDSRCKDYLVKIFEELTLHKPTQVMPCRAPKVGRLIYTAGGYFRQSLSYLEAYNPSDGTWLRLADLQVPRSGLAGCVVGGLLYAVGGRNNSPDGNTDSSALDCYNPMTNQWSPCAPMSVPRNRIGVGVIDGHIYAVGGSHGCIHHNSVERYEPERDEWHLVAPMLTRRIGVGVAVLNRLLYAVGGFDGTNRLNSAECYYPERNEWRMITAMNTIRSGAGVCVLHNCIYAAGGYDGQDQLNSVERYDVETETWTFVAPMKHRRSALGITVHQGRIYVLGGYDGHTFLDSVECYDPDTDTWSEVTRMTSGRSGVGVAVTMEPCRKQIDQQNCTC

These are yes or no findings as the source states them, for the method shown. In cells and extracts the contact can be indirect.

Turning to KEAP1 (from UniProt Q14145 1-624), the binding result is “no binding”.

The values are drawn from article PMC5141508.
